Source: PubChem BioAssay AID758 (NMMLSC, 2007)
Out of some 190,000 compounds screened, about 110 (0.058%) were called active. Inconclusive results, whose numbers are uncertain, are shown with a selection of clear calls.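 The calls were made as follows: active = fluorescent GTP binding to Rab7 beads changed by at least 20 points from the 100% baseline, either direction, mostly lower; inconclusive = compound itself probably fluorescent, or too few beads counted; inactive = the rest.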

system: Rab7 GTPase wild type (dog), Bodipy-FL-GTP binding; test: modulators of GTP binding to Rab7, primary screen, biochemical, wildtype, multiplex bead flow cytometry (AID 758); details: GST-Rab7 beads, fluorescent GTP binding, at 10 µM, actives lie on both sides, untreated = 100%, excess cold GTP = 0%;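 also: median green fluorescence of bound Bodipy-FL-GTP per Rab7 bead population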

Row | SMILES | GTP binding activity (percent of control)
1 | Cc1ccc(C(=O)Nc2ccc3c(c2)OCO3)cc1S(=O)(=O)N1CCCC1 | inconclusive: 91%
2 | CCN(C(=O)Cn1cnc2cc([N+](=O)[O-])ccc2c1=O)C1CCS(=O)(=O)C1 (centres undefined) | inconclusive: 96%
3 | Cc1nnc(SCC(=O)c2c(N)n(Cc3ccccc3)c(=O)n(C)c2=O)n1C | inconclusive: 91%
4 | CS(=O)(=O)N1CCN(c2ccccc2NC(=O)C(c2ccccc2)c2ccccc2)CC1 | inactive: 100%
5 | CCCn1c(N)c(C(=O)CSc2nc3ccccc3c(=O)n2Cc2ccccc2)c(=O)[nH]c1=O | inconclusive: 94%
6 | O=C(CCCOc1ccccc1)NCc1ccco1 | inconclusive: 104%
7 | COc1ccc(C2(CNC(=O)c3cccs3)CCOCC2)cc1 | inactive: 94%
8 | Cc1ccc2nc3c(cc(C(=O)NC4CCCC4)c(=N)n3CCCn3ccnc3)c(=O)n2c1 | inconclusive: 95%
9 | CCn1c(OC)nc2c1c(=O)n(C)c(=O)n2C | inconclusive: 96%
10 | Clc1ccc(/C=N/Nc2nc(Cl)nc3ccccc23)cc1 | inconclusive: 91%
11 | CSc1ccc(/C=N/NC(=O)c2cc(O)cc(O)c2)cc1 | inconclusive: 44%
12 | CC(NC(=S)Nc1ccccc1Cl)C(c1cccs1)N1CCCC1 (centres undefined) | inactive: 96%
13 | O=C1CC(c2ccccc2)Sc2ccccc2N1 (centres undefined) | inconclusive: 103%
14 | c1ccc(N2CCN(c3cnccn3)CC2)nc1 | inconclusive: 102%
15 | Cc1ccc(CNC(=O)C2CCN(S(=O)(=O)c3c(C)noc3C)CC2)cc1 | inconclusive: 103%
16 | Cc1cc(=O)n2c3ccccc3n(CC(O)CN3CCCC3)c2c1C#N (centres undefined) | inconclusive: 102%
17 | Cc1ccc(CNC(=O)c2ccc3nc4[nH]c5ccccc5c4nc3c2)cc1 | inconclusive: 94%
18 | O=C(NNC(=O)C1CCN(c2ncccn2)CC1)c1ccccc1 | inconclusive: 98%
19 | CCOc1cccc(Nc2cc3n(c(=O)n2)CCc2cc(OC)c(OC)cc2-3)c1 | inactive: 92%
20 | CNC(=O)c1cc2ccccc2o1 | inconclusive: 101%
21 | CC(C)NC(=O)COc1ccc(/C=N/NS(=O)(=O)c2ccccc2)cc1 | inconclusive: 92%
22 | Cc1ccc(NC(=O)c2ccccc2)cc1 | inconclusive: 106%
23 | CCOC(=O)Cc1nn[nH]n1 | inactive: 101%
24 | COc1cccc(NC(=O)NCCCN2CCN(c3ccc(F)cc3)CC2)c1 | active: 76%

Row | SMILES | GTP binding activity (percent of control)
25 | COc1ccc(-n2c(SCC(=O)N3CCCC(C)C3)nnc2-c2cccnc2)cc1 (centres undefined) | inconclusive: 94%
26 | Cc1nc([N+](=O)[O-])c(NCCCO)n1Cc1ccccc1 | inactive: 96%
27 | Cc1ccc(CCN=c2c([N+](=O)[O-])nn(-c3ccccc3)n2O)cc1 | inconclusive: 92%
28 | CCCCn1c(N)c(N2CCOCC2)c(=O)n(CC(=O)NCCc2ccccc2)c1=O | inactive: 105%
29 | COC(=O)c1ccc(N=Cc2c(C(F)(F)F)[nH][nH]c2=O)cc1 | inactive: 109%
30 | O=C(COc1ccccc1)Nc1ccc(-c2nnc(-c3ccco3)o2)cc1 | inconclusive: 93%
31 | CC(=O)c1c(C)[nH]c(C(=O)OCC(=O)Nc2ccccc2Cl)c1C | inconclusive: 104%
32 | CCCCCCC(=O)NN1CCN(C)CC1 | inconclusive: 104%
33 | COc1ccc(OC)c(NC2=NC3(CCCC3)N=C(N)N2)c1 | inconclusive: 89%
34 | COc1cc(NC(=O)Cn2nc(C(F)(F)F)c(Br)c2C)cc([N+](=O)[O-])c1 | inactive: 96%
35 | CC1=C(C(=O)OC(C)C)C(c2ccccc2)NC(=S)N1C (centres undefined) | inactive: 101%
36 | CC(C)N1CCC(N2CCN(Cc3cc4c(cc3Cl)OCO4)CC2CCO)CC1 (centres undefined) | inactive: 94%
37 | COc1ccc2[nH]c3nc(SCC(=O)Nc4ccc5c(c4)OCO5)nnc3c2c1 | inactive: 85%
38 | COc1cc(OC)cc(-c2nnc(SCC(=O)Nc3ccc(C(=O)O)cc3)s2)c1 | inactive: 93%
39 | CC(C)N(C(=O)Cn1cnc2cc([N+](=O)[O-])ccc2c1=O)C(C)C | inconclusive: 90%
40 | Cc1ccccc1NC(=O)CSc1ccsc1[N+](=O)[O-] | inactive: 98%
41 | Cc1ccc(CN2C(=O)CCC2C(=O)NCc2ccccc2Cl)cc1 (centres undefined) | inconclusive: 97%
42 | NS(=O)(=O)c1ccc(N/C=C\C(=O)c2cccc3ccccc23)cc1 | inconclusive: 100%
43 | COc1ccc(CC2(CO)CCN(S(=O)(=O)c3sccc3C)CC2)cc1 | active: 66%
44 | COc1ccc(/C=N/Nc2nc(-c3cccc(S(=O)(=O)N4CCCC4)c3)cs2)cc1OC | inconclusive: 93%
45 | CCOC(=O)Cn1c(=O)c2c(nc3n2CCN3Cc2ccccc2)n(C)c1=O | inactive: 100%
46 | Cc1ccc(NCC(=O)N/N=C/c2c[nH]c3ccccc23)cc1 | inconclusive: 95%
47 | O=C(Nc1nc(-c2cccs2)cs1)c1ccco1 | inconclusive: 94%
48 | Cc1nc(N/N=C/c2ccc(O)cc2)c2cnn(-c3ccccc3)c2n1 | inconclusive: 87%

Row | SMILES | GTP binding activity (percent of control)
49 | CC(C)(C)NC(=O)CSc1nccn1Cc1ccccc1 | inactive: 90%
50 | CCCCCn1c(NC(=O)c2ccco2)c(S(=O)(=O)c2ccc(C)cc2)c2nc3ccccc3nc21 | inconclusive: 89%
51 | O=c1c2cnn(-c3ccccc3)c2ncn1Cc1cccnc1 | inconclusive: 104%
52 | Cc1cccc(OCC(=O)N/N=C/c2ccc3c(c2)OCO3)c1 | inactive: 92%
53 | Cc1ccc(C(=O)Nc2cccc([N+](=O)[O-])c2)cc1S(=O)(=O)Nc1cccc(C(=O)O)c1 | inconclusive: 88%
54 | Cc1nnc2ccc(-c3cccc(NS(C)(=O)=O)c3)nn12 | inconclusive: 98%
55 | CCn1c(SCC(=O)Nc2nc3ccc(OC)cc3s2)nc2c1c(=O)n(C)c(=O)n2C | inconclusive: 92%
56 | FC(F)(F)c1cccc(-c2nnc3ccc(C(F)(F)F)cn23)c1 | inconclusive: 105%
57 | O=C(c1cccs1)N1CCCC(c2ccccc2)C1 (centres undefined) | inconclusive: 96%
58 | CCCCNC(=O)NS(=O)(=O)c1ccc(NS(=O)(=O)c2ccccc2)cc1 | inactive: 100%
59 | Cc1ccc(S(=O)(=O)NCCCCCC(=O)NC(C)(C)CO)cc1 | inconclusive: 96%
60 | Cc1cccc(-n2cccc2)c1C#N | inconclusive: 102%
61 | O=C(/C(Cl)=C/Nc1ccc(Br)cn1)C(F)(F)F | inactive: 104%
62 | Cc1ccc(C)c(NC(NC(=O)c2ccccn2)C(Cl)(Cl)Cl)c1 (centres undefined) | inactive: 100%
63 | OCCNC1=NCCN1 | inconclusive: 98%
64 | O=C(NN1C(=O)c2ccccc2NC1c1ccccc1OCc1ccccc1)c1ccncc1 (centres undefined) | inconclusive: 98%
65 | Cc1cccc(C(=O)OCc2cncs2)c1 | inactive: 98%
66 | O=C(Nc1ccccc1Cl)N1CCN(c2ccc3nnc(-c4ccccc4)n3n2)CC1 | inconclusive: 90%
67 | CSc1nc(N)c(C#N)c(-c2ccccc2Cl)c1C#N | inconclusive: 96%
68 | COC(=O)CSc1nnc(-c2ccco2)o1 | inconclusive: 103%
69 | Cc1ccc(C)c(C(=O)OCC(=O)Nc2ccc(N3CCOCC3)cc2)c1 | inconclusive: 97%
70 | CCC(C)N(C(=O)c1csnn1)C(C(=O)NC(C)(C)C)c1ccccc1 (centres undefined) | inactive: 104%
71 | Cc1ccc(Nc2n[nH]c(C)c2[N+](=O)[O-])c(C)c1 | inconclusive: 161%
72 | COC(=O)c1ccccc1NC(=S)NC(NC(=O)c1ccccc1[N+](=O)[O-])C(Cl)(Cl)Cl (centres undefined) | inconclusive: 104%

A second format for 5 compounds above:
Row	SMILES	GTP binding activity (percent of control)
40	Cc1ccccc1NC(=O)CSc1ccsc1[N+](=O)[O-]	inactive: 98%
41	Cc1ccc(CN2C(=O)CCC2C(=O)NCc2ccccc2Cl)cc1 (centres undefined)	inconclusive: 97%
42	NS(=O)(=O)c1ccc(N/C=C\C(=O)c2cccc3ccccc23)cc1	inconclusive: 100%
43	COc1ccc(CC2(CO)CCN(S(=O)(=O)c3sccc3C)CC2)cc1	active: 66%
44	COc1ccc(/C=N/Nc2nc(-c3cccc(S(=O)(=O)N4CCCC4)c3)cs2)cc1OC	inconclusive: 93%

Later entries

Row | SMILES | GTP binding activity (percent of control)
73 | Cc1ccc(NC(=O)NC2(C(=O)NCc3ccccc3)CCCCC2)cc1 | inconclusive: 96%
74 | O=C(NC1CCCCC1)C(c1ccco1)N(Cc1ccco1)C(=O)c1ccco1 (centres undefined) | inactive: 98%
75 | CCOc1ccc(NC(=S)N=Nc2c(O)[nH]c3ccccc23)cc1 | inconclusive: 90%
76 | CC(C)CCNCC1OCc2ccccc2CO1 | inactive: 105%
77 | CCCN(CCC)S(=O)(=O)c1ccc(C(=O)Nc2cc3oc4ccccc4c3cc2OC)cc1 | inactive: 96%
78 | COC(/C=C/Nc1ccc(OC)cc1)=C(C#N)C#N | inconclusive: 97%
79 | Cn1c(=N)c(S(=O)(=O)c2ccccc2)cc2c(=O)n3ccccc3nc21 | inconclusive: 89%
80 | O=C(COC(=O)Cc1ccc(S(=O)(=O)N2CCOCC2)s1)Nc1ccc2c(c1)OCO2 | inconclusive: 104%
81 | COc1ccc(/C=N/n2c(N)c(S(=O)(=O)c3cccs3)c3nc4ccccc4nc32)cc1OC | active: 75%
82 | Cc1cccc(CSc2ncccc2C(=O)O)c1 | active: 120% [activator]
83 | Cc1ccnc(NC(=O)Cn2cc([N+](=O)[O-])cn2)c1 | inactive: 104%
84 | NC(N)=Nc1nc2ccc(Cl)cc2c(=O)[nH]1 | inconclusive: 90%
85 | O=C(COC(=O)c1ccccc1C(=O)N1CCN(c2ccccc2)CC1)NCc1ccccc1 | inconclusive: 97%
86 | Cc1cc(=O)oc2cc(OCC(=O)OCC(=O)Nc3ccccc3F)ccc12 | inconclusive: 106%
87 | Cc1cc(C)n(Cc2n[nH]c(=S)n2Cc2ccccc2)n1 | inconclusive: 288%
88 | Cn1c(SCCOc2cccc(Cl)c2)nnc1-c1ccncc1 | inconclusive: 108%
89 | O=[N+]([O-])c1ccc(Cl)c(/C=N/n2c(-c3cccnc3)n[nH]c2=S)c1 | inconclusive: 90%
90 | Cc1cccc2sc(N(CCN(C)C)C(=O)/C=C/c3cccs3)nc12 | inconclusive: 101%
91 | O=C1CCCc2nc(N3CCc4ccccc43)ncc21 | inconclusive: 90%
92 | COc1ccc(CCNC(=O)C2CC(=O)N(C3CCCC3)C2)cc1OC (centres undefined) | inactive: 99%
93 | Cc1ccc(-c2nnc3sc(C4COc5ccccc5O4)nn23)cc1 (centres undefined) | inconclusive: 91%
94 | Cc1c(NC(=O)Nc2ccccc2Cl)sc(=S)n1C | inconclusive: 96%
